Test results: publication PMC10646096

Chains of the proteins cited; added tags and fusions are not shown.
UniProt P22314: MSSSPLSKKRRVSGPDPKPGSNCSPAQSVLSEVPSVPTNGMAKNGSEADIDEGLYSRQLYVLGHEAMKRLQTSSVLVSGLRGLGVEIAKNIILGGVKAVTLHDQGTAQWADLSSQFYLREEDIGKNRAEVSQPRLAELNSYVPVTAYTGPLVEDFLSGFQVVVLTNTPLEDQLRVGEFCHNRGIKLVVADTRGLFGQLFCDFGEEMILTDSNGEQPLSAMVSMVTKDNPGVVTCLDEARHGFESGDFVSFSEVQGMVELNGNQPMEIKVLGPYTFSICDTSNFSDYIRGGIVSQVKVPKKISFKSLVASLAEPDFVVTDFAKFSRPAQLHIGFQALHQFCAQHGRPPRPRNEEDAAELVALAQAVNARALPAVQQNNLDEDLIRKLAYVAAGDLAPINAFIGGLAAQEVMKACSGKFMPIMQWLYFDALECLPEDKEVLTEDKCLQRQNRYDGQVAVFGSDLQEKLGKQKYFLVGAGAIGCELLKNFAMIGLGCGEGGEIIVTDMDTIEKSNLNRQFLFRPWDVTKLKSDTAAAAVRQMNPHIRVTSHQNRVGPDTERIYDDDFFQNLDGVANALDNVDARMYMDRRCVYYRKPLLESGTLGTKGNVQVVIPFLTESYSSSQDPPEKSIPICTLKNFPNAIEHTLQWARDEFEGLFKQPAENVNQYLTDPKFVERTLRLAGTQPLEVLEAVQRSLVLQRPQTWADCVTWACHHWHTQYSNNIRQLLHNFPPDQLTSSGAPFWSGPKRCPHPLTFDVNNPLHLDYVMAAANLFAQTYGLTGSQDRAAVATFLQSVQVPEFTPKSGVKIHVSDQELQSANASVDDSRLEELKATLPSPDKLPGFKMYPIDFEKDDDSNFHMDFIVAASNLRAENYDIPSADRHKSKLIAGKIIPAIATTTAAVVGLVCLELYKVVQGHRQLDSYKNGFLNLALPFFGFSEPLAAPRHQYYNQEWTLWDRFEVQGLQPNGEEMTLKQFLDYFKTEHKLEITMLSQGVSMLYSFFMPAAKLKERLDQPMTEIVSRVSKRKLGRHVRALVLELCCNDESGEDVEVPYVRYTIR
UniProt O14933: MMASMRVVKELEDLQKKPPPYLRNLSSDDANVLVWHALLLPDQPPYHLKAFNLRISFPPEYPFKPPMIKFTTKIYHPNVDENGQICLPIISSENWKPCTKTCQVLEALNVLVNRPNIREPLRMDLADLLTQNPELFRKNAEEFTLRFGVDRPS

Columns and labels:
UBA1 (human) = UBA1 (human) (UniProt P22314); test: affinity purification with mass spectrometry; C-terminally FLAG-tagged E1/E2 baits transfected in HEK293T; NP40 lysate, FLAG affinity resin at 4 °C overnight, eluted with FLAG peptide; spectral counting, SAINT >= 0.65 against no-FLAG controls; 3 replicates a bait, 10 controls
UBE2L6 (human) = UBE2L6 (human) (UniProt O14933); test: as above

B1: UBE2G1 (enzyme, UniProt P62253 1-170)
chain: MTELQSALLLRRQLAELNKNPVEGFSAGLIDDNDLYRWEVLIIGPPDTLYEGGVFKAHLTFPKDYPLRPPKMKFITEIWHPNVDKNGDVCISILHEPGEDKYGYEKPEERWLPIHTVETIMISVISMLADPNGDSPANVDAAKEWREDRNGEFKRKVARCVRKSQETAFE
With B1 the binding (UBA1 (human)) was “binds”.

B2: UBE2J1 (enzyme, UniProt Q9Y385 1-318)
chain: METRYNLKSPAVKRLMKEAAELKDPTDHYHAQPLEDNLFEWHFTVRGPPDSDFDGGVYHGRIVLPPEYPMKPPSIILLTANGRFEVGKKICLSISGHHPETWQPSWSIRTALLAIIGFMPTKGEGAIGSLDYTPEERRALAKKSQDFCCEGCGSAMKDVLLPLKSGSDSSQADQEAKELARQISFKAEVNSSGKTISESDLNHSFSLTDLQDDIPTTFQGATASTSYGLQNSSAASFHQPTQPVAKNTSMSPRQRRAQQQSQRRLSTSPDVIQGHQPRDNHTDHGGSAVLIVILTLALAALIFRRIYLANEYIFDFEL
B2 was tested, and the binding (UBA1 (human)) was “binds”.

B3: UBE2J2 (enzyme, UniProt Q8N2K1 1-259)
chain: MSSTSSKRAPTTATQRLKQDYLRIKKDPVPYICAEPLPSNILEWHYVVRGPEMTPYEGGYYHGKLIFPREFPFKPPSIYMITPNGRFKCNTRLCLSITDFHPDTWNPAWSVSTILTGLLSFMVEKGPTLGSIETSDFTKRQLAVQSLAFNLKDKVFCELFPEVVEEIKQKQKAQDELSSRPQTLPLPDVVPDGETHLVQNGIQLLNGHAPGAVPNLAGLQQANRHHGLLGGALANLFVIVGFAAFAYTVKYVLRSIAQE
For B3, the binding (UBA1 (human)) was “binds”.

B4: UBA6 (enzyme, UniProt A0AVT1 1-1052)
chain: MEGSEPVAAHQGEEASCSSWGTGSTNKNLPIMSTASVEIDDALYSRQRYVLGDTAMQKMAKSHVFLSGMGGLGLEIAKNLVLAGIKAVTIHDTEKCQAWDLGTNFFLSEDDVVNKRNRAEAVLKHIAELNPYVHVTSSSVPFNETTDLSFLDKYQCVVLTEMKLPLQKKINDFCRSQCPPIKFISADVHGIWSRLFCDFGDEFEVLDTTGEEPKEIFISNITQANPGIVTCLENHPHKLETGQFLTFREINGMTGLNGSIQQITVISPFSFSIGDTTELEPYLHGGIAVQVKTPKTVFFESLERQLKHPKCLIVDFSNPEAPLEIHTAMLALDQFQEKYSRKPNVGCQQDSEELLKLATSISETLEEKPDVNADIVHWLSWTAQGFLSPLAAAVGGVASQEVLKAVTGKFSPLCQWLYLEAADIVESLGKPECEEFLPRGDRYDALRACIGDTLCQKLQNLNIFLVGCGAIGCEMLKNFALLGVGTSKEKGMITVTDPDLIEKSNLNRQFLFRPHHIQKPKSYTAADATLKINSQIKIDAHLNKVCPTTETIYNDEFYTKQDVIITALDNVEARRYVDSRCLANLRPLLDSGTMGTKGHTEVIVPHLTESYNSHRDPPEEEIPFCTLKSFPAAIEHTIQWARDKFESSFSHKPSLFNKFWQTYSSAEEVLQKIQSGHSLEGCFQVIKLLSRRPRNWSQCVELARLKFEKYFNHKALQLLHCFPLDIRLKDGSLFWQSPKRPPSPIKFDLNEPLHLSFLQNAAKLYATVYCIPFAEEDLSADALLNILSEVKIQEFKPSNKVVQTDETARKPDHVPISSEDERNAIFQLEKAILSNEATKSDLQMAVLSFEKDDDHNGHIDFITAASNLRAKMYSIEPADRFKTKRIAGKIIPAIATTTATVSGLVALEMIKVTGGYPFEAYKNCFLNLAIPIVVFTETTEVRKTKIRNGISFTIWDRWTVHGKEDFTLLDFINAVKEKYGIEPTMVVQGVKMLYVPVMPGHAKRLKLTMHKLVKPTTEKKYVDLTVSFAPDIDGDEDLPGPPVRYYFSHDTD
B4 was tested, and the binding (UBE2L6 (human)) was “binds”.

Results are given in words; binding and its absence hold for the method and conditions named. Binding seen in cells or lysates may run through a third protein. Here binding means that the protein was enriched with, or labelled near, the bait; the list need not be complete.
